Results are given in words; binding and its absence hold for the method and conditions named. Binding seen in cells or lysates may run through a third protein. Some binding calls cover weakened binding; strength is not graded here.
Legend:
Test in all cases: FRET or BRET; receptor-arrestin FRET in single living HEK293 cells co-transfected with ADRB1-Cer constructs and YFP-ARRB2; superfused with FRET buffer (137 mM NaCl, 4.5 mM KCl, 10 mM HEPES, 2 mM CaCl2, 2 mM MgCl2, pH 7.4) or 10 μM norepinephrine, room temperature; YFP/Cer ratio; also 0.1 μM and 1 μM norepinephrine (S3 Fig)
[1] = target: ADRB1 with alanine substitutions in the middle part of the C-terminus, Cerulean-tagged (human) (UniProt P08588)
[2] = target: ADRB1(Ala473/Ala475), Cerulean-tagged (human) (UniProt P08588)
[3] = target: ADRB1Δ3rdloop^a (ADRB1(Ala260)), Cerulean-tagged (human) (UniProt P08588)
[4] = target: human β1-adrenoceptor (ADRB1), wild type, Cerulean-tagged (human) (UniProt P08588)
[5] = target: ADRB1(Ala412), Cerulean-tagged (human) (UniProt P08588)
[6] = target: ADRB1 Δproximal C-terminus, Cerulean-tagged (human) (UniProt P08588)

The chains behind the UniProt entries cited, without tags or fusion partners. Where a name states a change or a piece, a line headed by the entry shows the natural chain unless it says otherwise. A line that says so, or that is headed by a name, gives the form on record, which may keep a tag or linker.
UniProt P08588: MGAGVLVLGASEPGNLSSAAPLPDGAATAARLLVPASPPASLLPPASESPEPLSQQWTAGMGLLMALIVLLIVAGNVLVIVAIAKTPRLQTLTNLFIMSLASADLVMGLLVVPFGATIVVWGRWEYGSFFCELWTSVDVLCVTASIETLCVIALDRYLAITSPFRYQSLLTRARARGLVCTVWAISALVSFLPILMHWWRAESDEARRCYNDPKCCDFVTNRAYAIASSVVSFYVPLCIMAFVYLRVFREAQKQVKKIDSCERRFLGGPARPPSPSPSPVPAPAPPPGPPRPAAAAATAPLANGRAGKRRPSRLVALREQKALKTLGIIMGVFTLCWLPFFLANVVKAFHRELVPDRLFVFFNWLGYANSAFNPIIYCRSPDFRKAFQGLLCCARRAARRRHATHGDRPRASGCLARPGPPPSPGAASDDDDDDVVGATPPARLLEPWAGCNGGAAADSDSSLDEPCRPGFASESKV
ADRB1 with alanine substitutions in the middle part of the C-terminus, Cerulean-tagged (P08588, form named): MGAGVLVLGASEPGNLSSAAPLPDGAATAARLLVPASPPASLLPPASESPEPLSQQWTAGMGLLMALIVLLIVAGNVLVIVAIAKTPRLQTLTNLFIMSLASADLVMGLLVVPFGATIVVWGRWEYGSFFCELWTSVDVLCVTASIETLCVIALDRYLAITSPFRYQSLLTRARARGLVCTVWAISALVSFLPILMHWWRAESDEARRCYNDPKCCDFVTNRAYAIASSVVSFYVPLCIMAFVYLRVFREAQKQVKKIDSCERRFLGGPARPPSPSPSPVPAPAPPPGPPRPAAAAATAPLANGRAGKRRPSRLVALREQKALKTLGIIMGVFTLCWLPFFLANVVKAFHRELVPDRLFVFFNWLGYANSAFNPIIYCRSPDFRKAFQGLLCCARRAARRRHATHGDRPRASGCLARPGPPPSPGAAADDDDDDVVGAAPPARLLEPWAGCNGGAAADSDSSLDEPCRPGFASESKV
ADRB1(Ala473/Ala475), Cerulean-tagged (P08588, form named): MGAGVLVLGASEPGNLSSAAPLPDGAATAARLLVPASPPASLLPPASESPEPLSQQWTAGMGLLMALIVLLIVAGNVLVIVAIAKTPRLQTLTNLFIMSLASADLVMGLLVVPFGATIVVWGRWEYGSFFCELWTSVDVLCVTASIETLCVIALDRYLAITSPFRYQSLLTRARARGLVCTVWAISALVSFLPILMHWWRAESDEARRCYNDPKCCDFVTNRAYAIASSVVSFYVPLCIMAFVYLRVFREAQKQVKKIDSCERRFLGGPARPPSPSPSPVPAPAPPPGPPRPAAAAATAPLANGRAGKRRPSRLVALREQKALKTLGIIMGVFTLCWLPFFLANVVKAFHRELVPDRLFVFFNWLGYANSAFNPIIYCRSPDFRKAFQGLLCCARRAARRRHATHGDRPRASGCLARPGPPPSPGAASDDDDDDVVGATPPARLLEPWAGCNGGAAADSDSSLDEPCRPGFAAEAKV
ADRB1Δ3rdloop^a (ADRB1(Ala260)), Cerulean-tagged (P08588, form named): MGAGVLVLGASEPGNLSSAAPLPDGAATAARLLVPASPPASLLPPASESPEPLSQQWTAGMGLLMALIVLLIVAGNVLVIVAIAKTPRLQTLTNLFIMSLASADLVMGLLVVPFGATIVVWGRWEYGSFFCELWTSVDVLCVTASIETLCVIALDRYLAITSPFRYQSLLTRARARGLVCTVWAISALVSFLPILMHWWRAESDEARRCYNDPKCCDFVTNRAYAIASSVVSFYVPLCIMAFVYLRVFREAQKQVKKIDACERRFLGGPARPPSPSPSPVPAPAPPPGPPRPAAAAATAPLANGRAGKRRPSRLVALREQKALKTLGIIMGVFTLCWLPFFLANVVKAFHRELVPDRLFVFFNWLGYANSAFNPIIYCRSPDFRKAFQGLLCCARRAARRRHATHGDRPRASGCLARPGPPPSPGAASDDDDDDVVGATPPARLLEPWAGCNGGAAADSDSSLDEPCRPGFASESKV
ADRB1(Ala412), Cerulean-tagged (P08588, form named): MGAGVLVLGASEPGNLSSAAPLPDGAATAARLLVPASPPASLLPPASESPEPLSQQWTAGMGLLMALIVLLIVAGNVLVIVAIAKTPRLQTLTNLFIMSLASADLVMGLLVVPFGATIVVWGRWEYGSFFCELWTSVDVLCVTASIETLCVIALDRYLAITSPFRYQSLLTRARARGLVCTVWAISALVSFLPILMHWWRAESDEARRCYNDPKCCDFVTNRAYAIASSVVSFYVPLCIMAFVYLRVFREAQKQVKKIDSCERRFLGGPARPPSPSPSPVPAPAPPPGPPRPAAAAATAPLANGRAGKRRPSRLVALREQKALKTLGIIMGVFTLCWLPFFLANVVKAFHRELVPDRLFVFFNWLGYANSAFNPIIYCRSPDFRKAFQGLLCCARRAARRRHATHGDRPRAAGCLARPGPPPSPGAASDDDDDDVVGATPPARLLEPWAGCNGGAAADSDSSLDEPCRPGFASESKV
ADRB1 Δproximal C-terminus, Cerulean-tagged (P08588, form named): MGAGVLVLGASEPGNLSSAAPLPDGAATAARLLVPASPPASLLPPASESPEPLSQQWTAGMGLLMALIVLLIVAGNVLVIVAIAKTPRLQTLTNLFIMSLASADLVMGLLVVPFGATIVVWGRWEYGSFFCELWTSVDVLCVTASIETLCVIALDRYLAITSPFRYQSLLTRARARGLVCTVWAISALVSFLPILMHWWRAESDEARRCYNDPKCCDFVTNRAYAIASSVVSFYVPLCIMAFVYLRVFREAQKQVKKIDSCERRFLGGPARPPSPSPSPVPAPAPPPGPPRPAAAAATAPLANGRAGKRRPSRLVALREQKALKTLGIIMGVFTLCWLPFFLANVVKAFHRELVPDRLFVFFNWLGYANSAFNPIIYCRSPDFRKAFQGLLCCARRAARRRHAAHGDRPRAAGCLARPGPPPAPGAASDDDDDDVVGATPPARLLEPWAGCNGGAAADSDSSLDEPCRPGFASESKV

Measured: binding

YFP-β-arrestin2 (from UniProt P32121 1-409)
binds: [1] | [2] | [3] | [4] | [5] | [6]
